Some of the results follow.

Amino acid sequences for entries named in this document (tags omitted).
UniProt Q0JBA9, entry or part of it: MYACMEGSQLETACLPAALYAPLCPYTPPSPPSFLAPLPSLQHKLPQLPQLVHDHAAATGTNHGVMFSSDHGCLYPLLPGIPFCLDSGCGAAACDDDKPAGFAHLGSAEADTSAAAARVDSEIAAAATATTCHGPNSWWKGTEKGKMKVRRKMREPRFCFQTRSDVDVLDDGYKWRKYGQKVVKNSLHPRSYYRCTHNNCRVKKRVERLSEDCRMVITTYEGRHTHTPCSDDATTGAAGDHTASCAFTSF

For the assay, the target named is OsWRKY34 (Oryza sativa, UniProt Q0JBA9 1-250). Description: protein-binding microarray (RPBM); PBS, 2% BSA, 51.3 ng/ul salmon testes DNA, 50 uM zinc acetate, 200 nM TF, 25 C, 1 h; high values mean tight binding. The conditions noted are these: protein: recombinant; tags: N-terminal polyhistidine and DsRed monomer fusion (pET32a); label: CyDye5-dUTP incorporated in the synthesized complementary strand; 3' TTTTT single-stranded linker to array surface; dsDNA, one strand shown. The method in brief:
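The binding signal for each feature is its fluorescence intensity in arbitrary units. An Axon 4000B scanner was used to read a custom Agilent array that had been made double-stranded with Cy5-dUTP primer extension, blocked with 2% BSA, incubated at 25 °C for 1 h with 200 nM protein in PBS, 2% BSA, salmon testes DNA and 50 µM zinc acetate, and washed. The protein was an N-terminal polyhistidine–DsRed transcription factor fusion from E. coli BL21-CodonPlus, purified on Ni–NTA.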
Consider “GTCGATCTGCTACTCCGATCCGCCGGGTCCGGGGCCCCTCCGGAGTCACCTAGTGCAG”, for which the binding signal is 9440 fluorescence intensity (a.u.).
Regarding “GTAGTTTTGTACTATTCACGTTCAACGTTACGTCTTATTTCGGAGTCACCTAGTGCAG”, the binding signal was 9380 fluorescence intensity (a.u.).
For the sequence “CCGCTCGTAAAATGTCCCTTACACGAATCGCCACCATGCACGGAGTCACCTAGTGCAG”, the binding signal is 9350 fluorescence intensity (a.u.).
Turning to “GCTTGGGTCTTGGGTCTTGGGTCCTTGGGGCTCTATATATCGGAGTCACCTAGTGCAG”, the binding signal is 15200 fluorescence intensity (a.u.).
In the case of “CGCCGCCTTCCATCCCCGCCGCCACCACCGCCAATCGCCACGGAGTCACCTAGTGCAG”, the binding signal was 8770 fluorescence intensity (a.u.).
Next, “CTATTCTTGTGCATTCTGTTTTTTATCGTACATGCTACAGCGGAGTCACCTAGTGCAG”: 11800 fluorescence intensity (a.u.).
Regarding “CAGCATTTCAGTTCGCTTTAGTTAGTACTACCACCTGCATCGGAGTCACCTAGTGCAG”, the binding signal was 9280 fluorescence intensity (a.u.).
Turning to “GTCCGATCCGCTCATCTCGTCGTCGTCTTCGCCGCCGCCGCGGAGTCACCTAGTGCAG”, the binding signal was 8880 fluorescence intensity (a.u.).
“CGACTTCTCGTGAAATTTTGCTGTCCATTTAATTATTTGTCGGAGTCACCTAGTGCAG”: the binding signal is 11300 fluorescence intensity (a.u.).
Turning to “TTATCCAATTATATCTTTTAGTGTGTGTGTGTGTATATATCGGAGTCACCTAGTGCAG”, the binding signal was 8110 fluorescence intensity (a.u.).
As to “ACTTTTATCGCGCCGTTGATCCCGCATCGGGCGGTCCAGACGGAGTCACCTAGTGCAG”, the binding signal is 8420 fluorescence intensity (a.u.).
As to “GACCGTCTTTGTATTTTCGGATCGCACCGTGCATTTCTCGCGGAGTCACCTAGTGCAG”, the binding signal was 10700 fluorescence intensity (a.u.).
Consider “TCCTCTCCTTTCTGCTTTTCTCTCGCCTTTTATTTCTTCTCGGAGTCACCTAGTGCAG”, for which the binding signal was 8270 fluorescence intensity (a.u.).
Next, “TTTACTTGTTGTATTTATATTTGTGCAATTTACATTTCTACGGAGTCACCTAGTGCAG”: 8810 fluorescence intensity (a.u.); “TTGCTCTTGGTCATTTTTATTAAGTCCCCGTTATAATTTTCGGAGTCACCTAGTGCAG”: 9890 fluorescence intensity (a.u.); “GGTGTAATTAGTATGGTGTTTTAATCGATACATGTATTGCCGGAGTCACCTAGTGCAG”: 10400 fluorescence intensity (a.u.).
With “CACATGCCTTTCAAGTGATCCACACGCCCTATCGGATCGACGGAGTCACCTAGTGCAG” the figure was 9350 fluorescence intensity (a.u.).
For the sequence “TTACCTAATTAGTGTGTAATTTACACCCGTCTATTATTATCGGAGTCACCTAGTGCAG”, the binding signal is 8920 fluorescence intensity (a.u.).
For the sequence “ACTCTTATTGTTCAAATGAAAATGCTAGGGGTATAACTGCCGGAGTCACCTAGTGCAG”, the binding signal is 8340 fluorescence intensity (a.u.).
Regarding “TGGGGTTTTGATGGAAGTACAATTCTAGCTATGTTCTTGACGGAGTCACCTAGTGCAG”, the binding signal is 10600 fluorescence intensity (a.u.).
Next, “TTCTATGGCCGTTGATGTAGGGGTGCTTGTGTGGATGATGCGGAGTCACCTAGTGCAG”: 11400 fluorescence intensity (a.u.); “CGCCGTCTTCAACTTGCTGGTCTACCCGCTCGCTGCCATCCGGAGTCACCTAGTGCAG”: 9480 fluorescence intensity (a.u.).
Turning to “GGGAAGGGGTTTTTGGCGTCACTCGCTTCTCTCTCTCCCCCGGAGTCACCTAGTGCAG”, the binding signal was 10400 fluorescence intensity (a.u.).
With “AGGGAGGGTTTTTTTTGTTAGGGCGGCAAGGGGCCTCCATCGGAGTCACCTAGTGCAG” the figure was 15900 fluorescence intensity (a.u.); with “CACTAATTGTTGATTTGCTTTGCTTTTGCTGTTTTTACAACGGAGTCACCTAGTGCAG”, 12700 fluorescence intensity (a.u.); with “GTTTCTGTTTTGCTAGATCTAGATGCTTTGCATGTTTGTTCGGAGTCACCTAGTGCAG”, 13300 fluorescence intensity (a.u.).
For “CATATTAGTATATCTTGTTGATTTTTTTTATTTTTTTCATCGGAGTCACCTAGTGCAG”, the binding signal was 8140 fluorescence intensity (a.u.).
On to “ACTTGTGGGCCCCATGTACTTTTTTTTTTTTTTTTGCTGACGGAGTCACCTAGTGCAG”, for which the binding signal was 8840 fluorescence intensity (a.u.).
Take “ACATGCTTTTTAACCAAACCCCGTGTCCAATATACACAGTCGGAGTCACCTAGTGCAG”: the binding signal was 8900 fluorescence intensity (a.u.).
For “GATCCTATCATTTTCAACGATGTTAAATCGTCACAGGCTTCGGAGTCACCTAGTGCAG”, the binding signal is 8310 fluorescence intensity (a.u.).
Take “GGGGATGCAGTCGGCGGGCGGCGGGCTGCTTTAAGGAAGACGGAGTCACCTAGTGCAG”: the binding signal is 12600 fluorescence intensity (a.u.).
Take “TACCGTCGGTTGACTATGTGTTGACCGTTAACTCTCAAGTCGGAGTCACCTAGTGCAG”: the binding signal is 12500 fluorescence intensity (a.u.).
As for “CCTAGCGCCGGTCCTCCTATTTTTCCATGCGGTTCCACTTCGGAGTCACCTAGTGCAG”, the binding signal was 8050 fluorescence intensity (a.u.).
Next, “CATTACTTTTTATAACTTTGCACTACGATACAGTAGCAAACGGAGTCACCTAGTGCAG”: 8320 fluorescence intensity (a.u.); “ATCTCCATTGCTCTCCCATATGGTGTCTTCCCCTGCTTTTCGGAGTCACCTAGTGCAG”: 8920 fluorescence intensity (a.u.); “CTTCCCACGCCAACGCCTCCGCTCCCGCTCGTACCACGCGCGGAGTCACCTAGTGCAG”: 8090 fluorescence intensity (a.u.).
Turning to “ATTCTAAATTTCTATTATTTCCTAATTGTGTTTCTATATGCGGAGTCACCTAGTGCAG”, the binding signal is 9600 fluorescence intensity (a.u.).
Consider “TCTTATATTTTTCTTATTTCTATGTTCACTCTCGGTATATCGGAGTCACCTAGTGCAG”, for which the binding signal is 11000 fluorescence intensity (a.u.).
For the sequence “AACTTCCAACTTTTCCATCGTATCAAAACTTTCCTACATACGGAGTCACCTAGTGCAG”, the binding signal was 9740 fluorescence intensity (a.u.).
Consider “AAACTAATTTTCTGTGACACTTCCAAGTGCATACCGGAGTCGGAGTCACCTAGTGCAG”, for which the binding signal was 8660 fluorescence intensity (a.u.).
As to “GTTTATGTGTCACATCCTCCAAAATCACTTATATTATATTCGGAGTCACCTAGTGCAG”, the binding signal was 10500 fluorescence intensity (a.u.).
Take “TCAGCATTGTTTAGCTTTACGCCCACCTGGATCACAATGTCGGAGTCACCTAGTGCAG”: the binding signal is 8160 fluorescence intensity (a.u.).

Values taken from publication PMC7819943, “Rice protein-binding microarrays: a tool to detect cis-acting elements near promoter regions in rice”.
